No constants are given. Whether binding was seen depends on the method and setting. In cells and extracts the contact can be indirect. Binding can be weak; no strength is given.
Biological target: GST-dGOLPH3 (Drosophila) (UniProt Q9VQ93)
Assay: pull-down; GST or GST-dGOLPH3 bound to glutathione-Sepharose 4B beads, incubated with testis lysate at 4 °C for 2 h; wash buffer 25 mM Tris-HCl pH 7.4, 150 mM NaCl, 1% NP-40, 1 mM EDTA; Western blot; only the target purified

The chains behind the UniProt entries cited, without tags or fusion partners. Where a name states a change or a piece, a line headed by the entry shows the natural chain unless it says otherwise.
UniProt Q9VQ93: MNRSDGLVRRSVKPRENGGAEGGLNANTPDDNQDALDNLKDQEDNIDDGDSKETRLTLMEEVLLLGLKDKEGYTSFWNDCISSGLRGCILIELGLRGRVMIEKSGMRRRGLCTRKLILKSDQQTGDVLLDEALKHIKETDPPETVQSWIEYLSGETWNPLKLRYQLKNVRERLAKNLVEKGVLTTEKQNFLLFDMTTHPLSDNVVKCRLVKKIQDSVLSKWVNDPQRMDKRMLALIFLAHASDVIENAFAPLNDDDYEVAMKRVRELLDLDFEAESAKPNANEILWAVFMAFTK
UniProt A1Z7J7: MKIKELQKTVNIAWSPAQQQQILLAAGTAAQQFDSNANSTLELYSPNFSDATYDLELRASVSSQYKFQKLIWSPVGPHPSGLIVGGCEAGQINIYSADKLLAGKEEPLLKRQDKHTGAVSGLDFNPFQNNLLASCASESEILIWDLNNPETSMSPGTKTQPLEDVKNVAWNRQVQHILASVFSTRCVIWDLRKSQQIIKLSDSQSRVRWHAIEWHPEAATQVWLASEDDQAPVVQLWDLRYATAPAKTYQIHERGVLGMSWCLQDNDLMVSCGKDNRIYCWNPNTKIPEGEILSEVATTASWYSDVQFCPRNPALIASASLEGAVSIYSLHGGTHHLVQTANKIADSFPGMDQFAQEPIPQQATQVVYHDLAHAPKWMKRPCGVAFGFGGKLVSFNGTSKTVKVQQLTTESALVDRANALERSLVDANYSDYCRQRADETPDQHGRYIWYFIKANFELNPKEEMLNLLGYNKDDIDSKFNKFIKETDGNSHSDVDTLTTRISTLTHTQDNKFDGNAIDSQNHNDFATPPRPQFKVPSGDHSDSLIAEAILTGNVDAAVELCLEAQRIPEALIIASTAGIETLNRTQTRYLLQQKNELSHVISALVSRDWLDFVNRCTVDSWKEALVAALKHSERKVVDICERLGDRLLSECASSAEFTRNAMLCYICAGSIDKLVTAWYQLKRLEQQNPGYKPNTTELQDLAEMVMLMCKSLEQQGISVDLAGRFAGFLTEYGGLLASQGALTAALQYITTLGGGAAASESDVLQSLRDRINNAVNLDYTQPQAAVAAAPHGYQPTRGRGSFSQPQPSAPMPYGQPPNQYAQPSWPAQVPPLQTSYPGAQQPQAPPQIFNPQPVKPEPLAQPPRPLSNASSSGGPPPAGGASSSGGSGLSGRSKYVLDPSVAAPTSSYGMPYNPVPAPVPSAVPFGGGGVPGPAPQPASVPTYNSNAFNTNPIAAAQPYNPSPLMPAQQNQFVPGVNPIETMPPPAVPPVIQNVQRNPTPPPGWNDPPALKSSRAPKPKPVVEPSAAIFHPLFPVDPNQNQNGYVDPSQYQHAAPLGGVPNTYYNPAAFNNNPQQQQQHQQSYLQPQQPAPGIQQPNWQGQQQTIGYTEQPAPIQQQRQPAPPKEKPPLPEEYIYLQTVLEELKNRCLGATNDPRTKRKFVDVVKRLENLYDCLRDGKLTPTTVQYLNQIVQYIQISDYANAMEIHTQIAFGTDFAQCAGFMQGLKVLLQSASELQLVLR

binding: binds
Substance: Sec31 (from UniProt A1Z7J7)
